Measured values from PMC12381781, “Structural and functional insights into the selective inhibition of mutant tau aggregation by purpurin and oleocanthal in frontotemporal dementia” (Protein Science : A Publication of the Protein Society, 2025).

Assay: Control fluorescence measurement without tau peptide (ThT interference)
Settings: 10 µM, no tau peptide, aggregation buffer, 48 h

Compound | interference with ThT fluorescence reading
C/C=C(/C=O)[C@@H](CC=O)CC(=O)OCCc1ccc(O)cc1 [OLC, oleocanthal] | do not interfere with ThT readings
O=C1c2ccccc2C(=O)c2c(O)c(O)cc(O)c21 [PUR, purpurin] | do not interfere with ThT readings
